These results are taken from paper PMC3429435.

Sequences of proteins named here, by UniProt entry; tags and fusion partners are left off. Residues count along the entry.
UniProt Q00899, whole entry: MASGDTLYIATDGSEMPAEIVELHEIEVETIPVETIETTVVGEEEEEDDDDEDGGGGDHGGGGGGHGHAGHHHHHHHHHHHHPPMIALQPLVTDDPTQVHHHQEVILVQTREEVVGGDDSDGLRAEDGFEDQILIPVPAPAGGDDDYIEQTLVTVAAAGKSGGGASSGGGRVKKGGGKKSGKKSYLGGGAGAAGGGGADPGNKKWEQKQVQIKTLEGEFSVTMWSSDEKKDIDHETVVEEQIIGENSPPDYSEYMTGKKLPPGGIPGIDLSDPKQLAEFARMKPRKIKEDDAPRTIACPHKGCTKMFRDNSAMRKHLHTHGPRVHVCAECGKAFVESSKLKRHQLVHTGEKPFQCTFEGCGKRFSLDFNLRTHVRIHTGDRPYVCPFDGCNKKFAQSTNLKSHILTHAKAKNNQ
UniProt P11103, 2-1013: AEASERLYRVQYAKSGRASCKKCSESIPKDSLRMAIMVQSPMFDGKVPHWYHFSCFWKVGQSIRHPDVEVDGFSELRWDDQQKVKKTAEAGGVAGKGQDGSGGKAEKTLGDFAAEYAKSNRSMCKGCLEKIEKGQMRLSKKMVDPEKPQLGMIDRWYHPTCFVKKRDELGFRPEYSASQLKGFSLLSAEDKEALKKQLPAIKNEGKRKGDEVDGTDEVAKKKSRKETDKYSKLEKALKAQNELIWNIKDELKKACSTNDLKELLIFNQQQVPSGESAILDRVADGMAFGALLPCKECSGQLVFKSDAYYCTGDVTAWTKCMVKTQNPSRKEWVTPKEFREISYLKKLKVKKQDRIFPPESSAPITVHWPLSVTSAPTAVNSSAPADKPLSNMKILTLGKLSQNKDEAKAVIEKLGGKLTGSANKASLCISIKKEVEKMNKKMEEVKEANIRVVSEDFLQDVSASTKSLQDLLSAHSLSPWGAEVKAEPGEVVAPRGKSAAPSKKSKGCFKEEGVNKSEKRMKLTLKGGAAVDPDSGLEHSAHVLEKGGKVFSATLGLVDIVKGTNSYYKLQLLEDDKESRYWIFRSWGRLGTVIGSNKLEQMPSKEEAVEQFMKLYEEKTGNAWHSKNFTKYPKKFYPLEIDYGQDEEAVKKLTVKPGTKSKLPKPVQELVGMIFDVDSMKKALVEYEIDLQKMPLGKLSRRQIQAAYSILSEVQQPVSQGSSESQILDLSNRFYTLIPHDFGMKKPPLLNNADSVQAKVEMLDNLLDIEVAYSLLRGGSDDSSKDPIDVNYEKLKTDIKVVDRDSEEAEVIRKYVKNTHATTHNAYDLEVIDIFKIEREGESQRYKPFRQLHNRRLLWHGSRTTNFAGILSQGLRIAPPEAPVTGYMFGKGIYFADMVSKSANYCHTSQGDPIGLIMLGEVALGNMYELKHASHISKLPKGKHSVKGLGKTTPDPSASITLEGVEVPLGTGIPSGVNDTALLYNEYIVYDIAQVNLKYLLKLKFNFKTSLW

Data set [1] has as its target YY1 (endogenous, NIH3T3 nuclear extract) (mouse (NIH3T3)) (UniProt Q00899). The data set is described as follows: EMSA. Particulars: 12.5 mM Hepes pH 7.9, 15 mM MgCl2, 0.5 mM EDTA, 50 mM KCl, 2 mM mercaptoethanol, 0.05% NP-40, 7.5% glycerol, 2 ug poly(dIdC), 10 ug nuclear extract, 37 C 30 min, protein in an extract, label: 32P (kinase).
In data set [2] the target is PARP-1 (endogenous, NIH3T3 nuclear extract) (mouse (NIH3T3)) (UniProt P11103). In words: EMSA supershift. Particulars: 12.5 mM Hepes pH 7.9, 15 mM MgCl2, 0.5 mM EDTA, 50 mM KCl, 2 mM mercaptoethanol, 0.05% NP-40, 7.5% glycerol, 2 ug poly(dIdC), 10 ug nuclear extract, 37 C 30 min, protein in an extract, label: 32P (kinase).
Data set [3] concerns the target YY1 (endogenous, NIH3T3 nuclear extract) (mouse (NIH3T3)) (UniProt Q00899). In words: EMSA supershift. Particulars: anti-YY1, most pronounced binding; 12.5 mM Hepes pH 7.9, 15 mM MgCl2, 0.5 mM EDTA, 50 mM KCl, 2 mM mercaptoethanol, 0.05% NP-40, 7.5% glycerol, 2 ug poly(dIdC), 10 ug nuclear extract, 37 C 30 min; protein in an extract; label: 32P (kinase).

At least one result comes from cells or an extract, where the contact may be indirect. For part of these data: A negative result means that nothing was seen under these conditions. For at least one entry, the source does not settle the construct or the ends of the probe. For part of these data: Weaker means in comparison with the reference protein, sequence or condition of that experiment.

For the sequence “ACGATCCTTAGGATGGCGGAGGCCTCGGAG (double strand) [BM7 m1]”, the binding result in data set [1] is “binds”.

Take “ACGAGAAGGAGGATGGCGGATTAAGAGGAG (double strand) [BM7 m5]”: the binding result in data set [1] is on record as “binds”; in data set [2] (anti-PARP-1, YY1 still binds), “no binding”.

For “ACGAGAAGGAGGCGTTAGGAGGCCTCGGAG (double strand) [BM7 m3]”, the binding result is reported as “no binding” in data set [1] (YY1 bands absent) and “no binding” in data set [2] (anti-PARP-1, YY1 site mutated, AGGCC intact).

With “ACGAGAAGGAGGATGGCGGAGGCCTCGGAG (double strand) [BM7 wild type]”, the binding result is given as “binds” in data set [2] (anti-PARP-1, YY1 present in extract) and “binds” in data set [3].

For the sequence “ACGAGAAGTCTTCTGGCGGAGGCCTCGGAG (double strand) [BM7 m2]”, the binding result in data set [1] (YY1 bands absent) was “no binding”.

Consider “ACGAGAAGGAGGATGGATTCTGCCTCGGAG (double strand) [BM7 m4]”, for which the binding result in data set [1] (bands vanishingly weak) is “binds more weakly”.
